From PubChem BioAssay AID1347076 (National Center for Advancing Translational Sciences (NCATS), 2019)
About 13,000 (3.2%) of roughly 400,000 compounds were called active. The shares of active, inactive and inconclusive entries below differ from those in the screen. Calls follow the shape of the dose curve; as a rule, active = well fitted cell-killing curve with a large enough effect; inconclusive = small, poorly fitted or top-dose-only effect, or effect the other way; inactive = flat fitted curve, though single readings scatter. Potencies of inconclusive entries are doubtful fits and often do not repeat.

assay: qHTS assay for MDR1-selective chemotherapeutics: Primary screen using the drug-selected MDR subline cells KB-V1; settings: KB-V1 MDR cells viability, CellTiter-Glo, 72 h; activity change, negative = cytotoxicity: at 46.1 µM (top of the series); also: nearly all actives have a fitted effect of over 60% in size
How it was run: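 Cytotoxicity toward P-gp-expressing KB-V1 cells was determined as loss of CellTiter-Glo luminescence after 72 h at 37 degrees C. Compounds were tested in quantitative HTS format across a concentration range, with curves fitted to normalized data.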
% is scaled to controls: 0 for no effect and ±100 for the full control effect; potency is read from the fitted curve at half-maximal effect.

| SMILES | Potency | activity change, negative = cytotoxicity |
| --- | --- | --- |
| Oc1[nH]c2ccccc2c1/C=N/c1nccs1 | inconclusive: 0.411 µM [cytotoxic, full curve] |  |
| CC1(C)C(=O)OC(c2ccc([N+](=O)[O-])cc2)C(C)(C)C1=O (stereo not drawn) | inconclusive: 20.6 µM [rising, partial curve, poor fit] |  |
| CCCNC(=O)NC(=O)COc1c(F)c(F)cc(F)c1F | inconclusive: 5.8 µM [rising, full curve] |  |
| CCOC(=O)[C@]12CCCC=C1N(Cc1ccc3c(c1)OCO3)C(=O)[C@H](CC(=O)NCc1cccc3ccccc13)C2 | inconclusive: 16.4 µM [cytotoxic, single point] |  |
| Cc1ncc(CO)c(/C=N/NC(=O)c2ccoc2C)c1O | inconclusive: 29.1 µM [cytotoxic, single point] |  |
| COc1ccc(CCn2c(=O)c3cccnc3n(CC(=O)Nc3ccc(C)c(F)c3)c2=O)cc1OC | inactive |  |
| COc1ccc(NC(=O)C2=CC(c3ccc(C)cc3)=NS(=O)(=O)N2C)cc1OC | inactive |  |
| O=C(CSc1nn(-c2ccc(F)cc2)c(=S)s1)N1CCN(C(=O)c2ccco2)CC1 | inconclusive: 9.2 µM [cytotoxic, partial curve, poor fit] |  |
| O=C1CCCS(=O)(=O)c2ccccc21 | inconclusive: 11.6 µM [cytotoxic, partial curve, poor fit] |  |
| CCN(CC)CCCN=Cc1c(-c2ccccc2)[nH]n(-c2nc3ccccc3s2)c1=O | inactive |  |
| COc1ccc(-c2nnc(SCC(=O)Nc3cccc(C(F)(F)F)c3)nc2-c2ccc(OC)cc2)cc1 | inconclusive: 23.1 µM [rising, single point] |  |
| COc1ccc(CC(=O)NCc2csc(-c3cccs3)n2)cc1OC | inconclusive: 13 µM [cytotoxic, partial curve, poor fit] |  |
| COC(=O)c1cc2ccsc2n1CC(=O)Nc1cc(Cl)ccc1OC | inconclusive: 16.4 µM [cytotoxic, single point] |  |
| CC(=O)N1CCSc2ccc(S(=O)(=O)Nc3ccc(C)cc3)cc21 | inconclusive: 7.31 µM [cytotoxic, partial curve, poor fit] |  |
| COc1cccc(C(C)(O)c2nc(-c3csc4ccccc34)cs2)c1 (stereo not drawn) | inactive |  |
| COC(=O)c1c(NC(=O)c2cc3ccccc3c(=O)o2)sc2c1CCCC2 | inactive |  |
| CC(=O)c1ccc(Nc2nc(C(N)Cc3ccc(C(F)(F)F)cc3)cs2)cc1 (stereo not drawn) | active: 11.6 µM |  |
| CC(=O)N(c1nc(/C=C\C(=O)O)cs1)c1ccccc1F | inconclusive: 13 µM [rising, partial curve] |  |
| O=C(O)c1ccc(-c2noc(-c3ccc(F)cc3)n2)cc1 | inconclusive: 1.16 µM [cytotoxic, full curve, poor fit] |  |
| COc1ccc(CN2CCNC(=O)C2CC(=O)NC2Cc3ccccc3C2)c(OC)c1 (stereo not drawn) | inconclusive: 29.1 µM [rising, single point] |  |
| C#Cc1ccc(NC(=O)C2(C)CCN2C(=O)C2(c3ccccc3)CC2)cc1 (stereo not drawn) | inactive |  |
| S=C(NCC1CCCO1)Nc1ccc(Cl)cc1 (stereo not drawn) | inconclusive: 32.6 µM [cytotoxic, partial curve, poor fit] |  |
| Cc1ccc2c(c1)C(=C(C#N)C#N)C(=O)N2CCN1CCCCC1 | inactive |  |

| SMILES | Potency | activity change, negative = cytotoxicity |
| --- | --- | --- |
| CCN(CC)C(=O)CN1CCC(n2c(C)nc3cc(C(F)(F)F)ccc32)CC1 | inactive |  |
| Cc1ccc(C)c(NS(=O)(=O)c2csc(C(N)=O)c2)c1 | inactive |  |
| Cc1ccc(C2C=CC(C#N)=CN2Cc2ccccc2)cc1 (stereo not drawn) | inactive |  |
| CCc1nc2ccc(C(=O)Nc3cccc(NS(C)(=O)=O)c3)cn2c1N(C)C(=O)c1cccc(OC)c1 | inconclusive: 0.517 µM [rising, full curve] |  |
| O=C(CN1C(=O)NC2(CCCC2)C1=O)Nc1ccc(F)c([N+](=O)[O-])c1 | inconclusive: 0.0461 µM [rising, full curve] |  |
| COc1ccc(S(=O)(=O)NCCN2CCOCC2)cc1Br | inactive |  |
| Cc1cc(N)nc(C)c1C#N | inactive |  |
| CCOC(=O)c1c(C)nc2sc3c(=O)n(-c4ccc(C(C)=O)cc4)nnc3c2c1-c1ccc(Cl)cc1 | inconclusive: 20.6 µM [cytotoxic, single point] |  |
| Cc1cccc(N(CC(O)Cn2c3ccccc3c3ccccc32)S(=O)(=O)c2ccc(F)cc2)c1 (stereo not drawn) | inconclusive: 20.6 µM [cytotoxic, single point] |  |
| COc1ccc2oc(C(=O)NCC(Cc3ccccc3)N(C)C)c(C)c2c1 (stereo not drawn) | inconclusive: 10.3 µM [cytotoxic, partial curve, poor fit] |  |
| CCOc1ccc(NC(=O)CSc2nnnn2-c2ccc(C(N)=O)cc2)cc1 | inconclusive: 29.1 µM [rising, single point] |  |
| O=C1CCCN1CCCNC(=S)Nc1cccc2ccccc12 | inconclusive: 29.1 µM [cytotoxic, single point] |  |
| O=C(N/N=C/c1c(O)ccc2ccccc12)c1[nH]ncc1Br | inconclusive: 0.58 µM [cytotoxic, full curve, poor fit] |  |
| C=CCNC(=S)N1CCN(C2CCCCC2)CC1 | inactive |  |
| COc1ccccc1C(=O)N1CCN(C(=O)[C@H]2O[C@@H](n3ccc(=O)[nH]c3=O)[C@H](O)[C@@H]2O)CC1 | inconclusive: 16.4 µM [cytotoxic, partial curve, poor fit] |  |
| COc1cc2nc(C3CCC3)n(N)c(=O)c2cc1OC | inconclusive: 14.6 µM [cytotoxic, single point] |  |
| C=C1C(=O)[C@]23C[C@H]1CCC2[C@]1(C)CCC[C@@](C)(C(=O)O)C1C[C@@H]3O (stereo partly drawn) | inconclusive: 13 µM [cytotoxic, partial curve, poor fit] |  |
| Cc1ccc(/C=N/NC(=O)COc2ccc(Cl)c(C)c2)o1 | inactive |  |
| CCn1c(=O)c(C(=O)CN(C)CC(=O)Nc2ccccc2Br)c(N)n(Cc2ccccc2)c1=O | inconclusive: 1.3 µM [cytotoxic, full curve] |  |
| CN(Cc1ccc(Cl)c(Cl)c1)C(c1cc2ccccc2o1)c1nnnn1C(C)(C)C (stereo not drawn) | active: 14.6 µM |  |
| COc1ccc(N(CC(=O)NCC(C)C)S(=O)(=O)c2ccccc2)cc1 | inconclusive: 29.1 µM [cytotoxic, single point] |  |
| C/C(=N/N=C1/NC(=O)CC(C(=O)Nc2ccccc2)S1)c1cccs1 (stereo not drawn) | inconclusive: 16.4 µM [rising, single point] |  |
| C/C=C(/C)C(=O)OC1c2c(ccc3ccc(=O)oc23)OC(C)(C)C1OC(=O)/C(C)=C\C (stereo not drawn) | inconclusive: 0.517 µM [cytotoxic, full curve, poor fit] |  |

Some of these compounds in order of number of heavy atoms, largest number first.

| SMILES | Potency | activity change, negative = cytotoxicity |
| --- | --- | --- |
| CCN(CC)C(=O)CN1CCC(n2c(C)nc3cc(C(F)(F)F)ccc32)CC1 | inactive |  |
| C/C(=N/N=C1/NC(=O)CC(C(=O)Nc2ccccc2)S1)c1cccs1 (stereo not drawn) | inconclusive: 16.4 µM [rising, single point] |  |
| COc1cc2nc(C3CCC3)n(N)c(=O)c2cc1OC | inconclusive: 14.6 µM [cytotoxic, single point] |  |
| C=CCNC(=S)N1CCN(C2CCCCC2)CC1 | inactive |  |

(more compounds)

| SMILES | Potency | activity change, negative = cytotoxicity |
| --- | --- | --- |
| CCC(C)c1ccc(S(=O)(=O)N2CCN(CC(O)CN3CCOCC3)CC2)cc1 (stereo not drawn) | active: 5.8 µM |  |
| COc1ccc(NC2=Nc3cccc4cccc2c34)cc1OC | inconclusive: 29.1 µM [cytotoxic, single point] |  |
| O=C(COC(=O)Cc1ccc(S(=O)(=O)N2CCCCC2)s1)Nc1ccc2c(c1)OCO2 | inconclusive: 14.6 µM [rising, partial curve] |  |
| CCOc1ccc(S(=O)(=O)N(C)CCO)cc1-c1nc2c(C(C)(C)C)nn(C)c2c(=O)[nH]1 | active: 10.3 µM |  |
| O=C(Cn1cc(C(F)(F)F)ccc1=O)N/N=C/c1cccc(Cl)c1Cl | inactive |  |
| CCOC(=O)N1CCN(C(=O)CCCn2nc(C)c3sc4ccccc4c3c2=O)CC1 | inconclusive: 20.6 µM [cytotoxic, single point] |  |
| CCOc1ccc(C(=O)Nc2nnc(C3=COCCO3)o2)cc1 | inconclusive: 23.1 µM [cytotoxic, single point] |  |
| Cc1sc2ncnc(NC3CCN(Cc4ccccc4)CC3)c2c1C | active: 1.64 µM |  |
| CC1(C(=O)NCC(F)(F)F)CCN1C(=O)Cc1ccc(-c2ccccc2)cc1 (stereo not drawn) | inconclusive: 16.4 µM [cytotoxic, partial curve] |  |
| Cc1ccc2onc(CC(=O)N3CCN(c4ccc(F)cc4)CC3)c2c1 | inconclusive: 29.1 µM [cytotoxic, single point] |  |
| CNC(=O)C1(C)Cc2c(-c3ccc4c(c3)OCO4)ccnc2O1 (stereo not drawn) | inactive |  |
| Cc1csc(N=Cc2ccc([N+](=O)[O-])o2)n1 | inactive |  |
| Cc1nn(Cc2c(F)c(F)c(F)c(F)c2F)c(C)c1NC(=O)c1nn(C)cc1[N+](=O)[O-] | inconclusive: 29.1 µM [cytotoxic, single point] |  |
| CCN1/C(=C/C=C/C=C/c2sc3ccccc3[n+]2CC)Sc2ccccc21 | inconclusive: 29.1 µM [cytotoxic, single point] |  |
| C/C(=C\C=C(C#N)C#N)c1cc(C#N)c(N)o1 | inconclusive: 29.1 µM [cytotoxic, single point] |  |
| O=C(NC1CCCc2ccccc21)c1n[nH]c(=O)c2ccccc12 (stereo not drawn) | inconclusive: 10.3 µM [cytotoxic, partial curve] |  |
| COn1c(-c2ccccc2)nc2ccc(Cl)cc21 |  | inconclusive: -31.2% [cytotoxic] |
| O=C(Oc1cc2oc(=O)cc(-c3ccccc3)c2cc1Cl)C1CCCCC1 | inconclusive: 10.3 µM [rising, single point] |  |
| CN1CCc2c(sc3c2c(=O)n(-c2ccccc2)c2nncn32)C1 | inconclusive: 29.1 µM [rising, single point] |  |
| CCOC(=O)N1CCN(C(=O)c2cccn3c(=O)c4sccc4nc23)CC1 | inconclusive: 8.2 µM [cytotoxic, partial curve] |  |
| CCCCCn1nc(C(=O)N(CC(C)C)c2c(N)n(CCCC)c(=O)[nH]c2=O)c2ccccc2c1=O | inactive |  |
| O=C(Nc1ccccc1F)Nc1ccccc1N1CCCCC1 | inconclusive: 23.1 µM [cytotoxic, partial curve, poor fit] |  |
